From paper doi:10.1101/2021.10.08.463692
These are yes or no findings as the source states them, for the method shown. In cells and extracts the contact can be indirect. A result given as binding can be weak or reduced; the word gives no strength. Where a sequence is shown, tags or fusion partners need not be part of it.

Target: SspH2 LRR domain (Salmonella enterica serovar Typhimurium)
Assay: co-IP

B1: NOD1, wild type, FLAG-tagged (pcDNA3-NOD1-Flag) (receptor, UniProt Q9Y239 1-953)
chain: MEEQGHSEMEIIPSESHPHIQLLKSNRELLVTHIRNTQCLVDNLLKNDYFSAEDAEIVCACPTQPDKVRKILDLVQSKGEEVSEFFLYLLQQLADAYVDLRPWLLEIGFSPSLLTQSKVVVNTDPVSRYTQQLRHHLGRDSKFVLCYAQKEELLLEEIYMDTIMELVGFSNESLGSLNSLACLLDHTTGILNEQGETIFILGDAGVGKSMLLQRLQSLWATGRLDAGVKFFFHFRCRMFSCFKESDRLCLQDLLFKHYCYPERDPEEVFAFLLRFPHVALFTFDGLDELHSDLDLSRVPDSSCPWEPAHPLVLLANLLSGKLLKGASKLLTARTGIEVPRQFLRKKVLLRGFSPSHLRAYARRMFPERALQDRLLSQLEANPNLCSLCSVPLFCWIIFRCFQHFRAAFEGSPQLPDCTMTLTDVFLLVTEVHLNRMQPSSLVQRNTRSPVETLHAGRDTLCSLGQVAHRGMEKSLFVFTQEEVQASGLQERDMQLGFLRALPELGPGGDQQSYEFFHLTLQAFFTAFFLVLDDRVGTQELLRFFQEWMPPAGAATTSCYPPFLPFQCLQGSGPAREDLFKNKDHFQFTNLFLCGLLSKAKQKLLRHLVPAAALRRKRKALWAHLFSSLRGYLKSLPRVQVESFNQVQAMPTFIWMLRCIYETQSQKVGQLAARGICANYLKLTYCNACSADCSALSFVLHHFPKRLALDLDNNNLNDYGVRELQPCFSRLTVLRLSVNQITDGGVKVLSEELTKYKIVTYLGLYNNQITDVGARYVTKILDECKGLTHLKLGKNKITSEGGKYLALAVKNSKSISEVGMWGNQVGDEGAKAFAEALRNHPSLTTLSLASNGISTEGGKSLARALQQNTSLEILWLTQNELNDEVAESLAEMLKVNQTLKHLWLIQNQITAKGTAQLADALQSNTGITEICLNGNLIKPEEAKVYEDEKRIICF
binding: binds
